Data source: PubChem BioAssay AID1259275 (Sanger Institute, 2017)
The whole screen tested 794 reagents; below is a part drawn at random. In the full data, 13 (1.6%) got an active call. 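Calls mark knock-downs lethal by themselves, not drug synergy; drugs went in a day after transfection, with DMSO as vehicle.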 A number with no mark means an inactive call. No viability above 1 is reported: the scale is capped. Reagent sequences are not shown. The record does not give: the amount of reagent, the time to read-out.

Aim: 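Kinome and custom colorectal gene library screened for lethal knock-downs and drug partners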 (primary screen)
Cells: COLO320HSR human colorectal cancer cells
Reagents: siRNA pool against human genes
Challenge: anchor drug added one day after transfection: BYL719 at 1 µM, cetuximab at 5 µg/ml or trametinib at 10 nM; DMSO as vehicle arm
Detection: 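Viability averaged over replicates as a fraction of the non-targeting pool, a robust z-score for knock-down alone, and synergy scores with BYL719 (1 µM), cetuximab (5 µg/ml) or trametinib (10 nM)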
Direction: robust z-score, siRNA alone: higher = more viable cells; strongly negative means essential; viability, knock-down alone (DMSO): higher = more viable cells; synergy score with BYL719 and synergy score with cetuximab and synergy score with trametinib: higher = stronger combined killing with drug
Hit rule: 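Essential means the knock-down by itself gives a robust z-score lower than -3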
Meaning of the calls: active = essential (siRNA alone); inactive = no change (siRNA alone)

"robust z-score, siRNA alone","viability, knock-down alone (DMSO) (fraction of control)",synergy score with BYL719,synergy score with cetuximab,synergy score with trametinib,target gene
-0.872,0.856,-0.0217,-0.00345,-0.0553,ADPGK (GeneID 83440)
-1.38,0.81,-0.241,-0.263,-0.0863,NADK (GeneID 65220)
0.726,1,0.0193,-0.066,-0.0259,HUNK (GeneID 30811)
0.726,1,-0.11,0.0816,0.00307,KHK (GeneID 3795)
0.726,1,-0.069,-0.0893,0.0516,RIOK2 (GeneID 55781)
0.726,1,-0.296,-0.0893,-0.0259,NME5 (GeneID 8382)
-1.11,0.835,0.0481,-0.0733,-0.0589,CDKL2 (GeneID 8999)
0.726,1,-0.0851,-0.0893,-0.0259,NTRK1 (GeneID 4914)
0.726,1,-0.116,-0.0893,0.0753,HK1 (GeneID 3098)
0.601,0.989,0.0151,-0.0499,-0.0129,KSR2 (GeneID 283455)
0.605,0.989,-0.163,-0.0993,-0.0366,NEK9 (GeneID 91754)
0.527,0.982,-0.0726,-0.0681,-0.0012,NRAS (GeneID 4893)
0.13,0.946,-0.108,-0.138,-0.00018,ADCK1 (GeneID 57143)
-0.19,0.917,-0.119,-0.141,-0.106,STK32A (GeneID 202374)
-0.0719,0.928,-0.303,-0.155,-0.0961,EPHA5 (GeneID 2044)
0.468,0.977,-0.157,-0.0778,-0.0487,TCF7L2 (GeneID 6934)
0.726,1,-0.176,-0.07,-0.0259,CEP290 (GeneID 80184)
-0.504,0.889,0.0152,-0.0893,0.0619,PNCK (GeneID 139728)
0.675,0.995,-0.203,-0.0566,0.0362,PRKD1 (GeneID 5587)
-1.44,0.804,-0.0968,-0.113,-0.0667,GALK1 (GeneID 2584)

Looked up above.
NEK9 (GeneID 91754), viability, knock-down alone (DMSO) (fraction of control) = 0.989
For “robust z-score, siRNA alone”, CEP290 (GeneID 80184) reads 0.726
